In article doi:10.1101/2023.02.19.529116 (bioRxiv, 2023):

How the values were obtained:
[1] = molecular target: T1, Smoothened (ReLo) (Drosophila) (UniProt P91682); experiment: ReLo
T1 sequence: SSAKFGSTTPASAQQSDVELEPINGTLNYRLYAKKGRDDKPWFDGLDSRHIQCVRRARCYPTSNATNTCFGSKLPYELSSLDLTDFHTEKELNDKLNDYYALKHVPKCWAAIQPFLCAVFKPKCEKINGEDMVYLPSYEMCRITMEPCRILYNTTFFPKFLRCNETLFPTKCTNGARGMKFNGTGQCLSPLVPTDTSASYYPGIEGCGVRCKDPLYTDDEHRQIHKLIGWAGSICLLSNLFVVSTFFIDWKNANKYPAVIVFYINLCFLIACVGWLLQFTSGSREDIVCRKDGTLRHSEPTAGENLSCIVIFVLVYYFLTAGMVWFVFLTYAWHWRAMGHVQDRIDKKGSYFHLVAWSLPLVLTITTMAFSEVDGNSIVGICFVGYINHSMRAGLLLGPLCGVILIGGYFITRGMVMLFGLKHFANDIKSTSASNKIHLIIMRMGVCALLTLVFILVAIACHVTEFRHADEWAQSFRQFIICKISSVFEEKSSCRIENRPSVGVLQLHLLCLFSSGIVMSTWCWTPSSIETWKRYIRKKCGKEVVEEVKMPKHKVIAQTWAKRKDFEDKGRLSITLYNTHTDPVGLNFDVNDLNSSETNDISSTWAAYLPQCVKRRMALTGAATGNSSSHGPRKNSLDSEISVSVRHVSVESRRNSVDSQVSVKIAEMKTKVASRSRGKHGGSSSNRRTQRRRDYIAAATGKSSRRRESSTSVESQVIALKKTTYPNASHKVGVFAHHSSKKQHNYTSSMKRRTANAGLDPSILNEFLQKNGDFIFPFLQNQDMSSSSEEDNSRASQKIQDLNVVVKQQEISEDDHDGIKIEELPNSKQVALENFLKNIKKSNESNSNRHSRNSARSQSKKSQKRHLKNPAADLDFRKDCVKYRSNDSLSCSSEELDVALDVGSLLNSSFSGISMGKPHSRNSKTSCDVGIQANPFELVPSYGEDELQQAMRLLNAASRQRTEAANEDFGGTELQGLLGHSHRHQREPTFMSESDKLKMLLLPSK

[2] = molecular target: T2, Smoothened cytotail (Smo 556-1036), ReLo (Drosophila) (UniProt P91682); experiment: ReLo
T2 sequence: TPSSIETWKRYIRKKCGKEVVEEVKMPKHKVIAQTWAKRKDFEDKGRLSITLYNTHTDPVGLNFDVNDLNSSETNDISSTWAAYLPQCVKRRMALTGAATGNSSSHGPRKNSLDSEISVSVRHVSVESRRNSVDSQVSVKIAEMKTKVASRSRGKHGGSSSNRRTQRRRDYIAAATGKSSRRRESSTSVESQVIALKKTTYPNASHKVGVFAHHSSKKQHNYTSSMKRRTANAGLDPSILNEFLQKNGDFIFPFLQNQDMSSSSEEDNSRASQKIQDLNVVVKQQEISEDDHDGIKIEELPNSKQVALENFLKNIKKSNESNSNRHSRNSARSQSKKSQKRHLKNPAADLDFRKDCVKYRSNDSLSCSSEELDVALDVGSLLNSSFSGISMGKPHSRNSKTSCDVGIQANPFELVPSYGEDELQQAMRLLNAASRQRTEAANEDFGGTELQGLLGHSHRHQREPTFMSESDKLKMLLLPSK

[3] = molecular target: T3, PH-EGFP-Smaug (Drosophila) (UniProt Q23972); experiment: ReLo
T3 sequence: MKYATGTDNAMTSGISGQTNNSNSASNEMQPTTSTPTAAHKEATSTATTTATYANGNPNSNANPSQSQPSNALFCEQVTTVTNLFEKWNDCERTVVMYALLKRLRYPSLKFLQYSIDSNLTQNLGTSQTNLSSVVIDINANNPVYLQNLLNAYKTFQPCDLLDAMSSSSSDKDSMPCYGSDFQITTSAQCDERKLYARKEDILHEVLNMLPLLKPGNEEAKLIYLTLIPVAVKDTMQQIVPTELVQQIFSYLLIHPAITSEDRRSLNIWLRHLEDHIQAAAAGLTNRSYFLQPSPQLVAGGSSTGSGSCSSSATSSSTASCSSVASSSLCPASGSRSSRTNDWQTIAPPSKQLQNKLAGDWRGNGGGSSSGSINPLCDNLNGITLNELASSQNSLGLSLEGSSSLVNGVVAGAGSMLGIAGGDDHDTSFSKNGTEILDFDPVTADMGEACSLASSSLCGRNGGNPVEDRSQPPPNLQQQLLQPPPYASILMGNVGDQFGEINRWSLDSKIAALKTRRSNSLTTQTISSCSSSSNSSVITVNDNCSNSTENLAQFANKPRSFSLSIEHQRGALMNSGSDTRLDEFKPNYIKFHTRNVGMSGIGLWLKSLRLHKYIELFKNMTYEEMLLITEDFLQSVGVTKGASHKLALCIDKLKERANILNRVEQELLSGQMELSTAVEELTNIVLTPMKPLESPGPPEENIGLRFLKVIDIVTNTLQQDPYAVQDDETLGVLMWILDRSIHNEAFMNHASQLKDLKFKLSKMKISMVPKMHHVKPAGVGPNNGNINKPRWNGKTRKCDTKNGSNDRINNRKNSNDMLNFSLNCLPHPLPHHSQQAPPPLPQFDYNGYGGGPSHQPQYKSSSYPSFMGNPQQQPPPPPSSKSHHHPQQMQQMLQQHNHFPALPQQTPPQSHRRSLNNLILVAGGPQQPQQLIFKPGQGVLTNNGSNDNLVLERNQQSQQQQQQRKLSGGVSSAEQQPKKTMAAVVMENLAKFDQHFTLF

[4] = molecular target: Short Oskar (Y2H) (Drosophila); experiment: two-hybrid
[5] = molecular target: Smoothened deletion, ReLo (Drosophila) (UniProt P91682); experiment: ReLo
[6] = molecular target: Long Oskar (ReLo) (Drosophila); experiment: ReLo
[7] = molecular target: OST4-Short Oskar with the deletion of the SBR (ReLo) (Drosophila); experiment: ReLo
[8] = molecular target: MBP-Oskar 292-325 (Drosophila); experiment: pull-down

Molecule: Smaug NTD MUT (S250E/L253E), ReLo (Drosophila) (domain or fragment)
binding [2]: no binding

Molecule: Bard (from UniProt Q9VED4)
binding [3]: binds

B1: Smaug (Y2H) (protein, UniProt Q23972 1-999)
chain: MKYATGTDNAMTSGISGQTNNSNSASNEMQPTTSTPTAAHKEATSTATTTATYANGNPNSNANPSQSQPSNALFCEQVTTVTNLFEKWNDCERTVVMYALLKRLRYPSLKFLQYSIDSNLTQNLGTSQTNLSSVVIDINANNPVYLQNLLNAYKTFQPCDLLDAMSSSSSDKDSMPCYGSDFQITTSAQCDERKLYARKEDILHEVLNMLPLLKPGNEEAKLIYLTLIPVAVKDTMQQIVPTELVQQIFSYLLIHPAITSEDRRSLNIWLRHLEDHIQAAAAGLTNRSYFLQPSPQLVAGGSSTGSGSCSSSATSSSTASCSSVASSSLCPASGSRSSRTNDWQTIAPPSKQLQNKLAGDWRGNGGGSSSGSINPLCDNLNGITLNELASSQNSLGLSLEGSSSLVNGVVAGAGSMLGIAGGDDHDTSFSKNGTEILDFDPVTADMGEACSLASSSLCGRNGGNPVEDRSQPPPNLQQQLLQPPPYASILMGNVGDQFGEINRWSLDSKIAALKTRRSNSLTTQTISSCSSSSNSSVITVNDNCSNSTENLAQFANKPRSFSLSIEHQRGALMNSGSDTRLDEFKPNYIKFHTRNVGMSGIGLWLKSLRLHKYIELFKNMTYEEMLLITEDFLQSVGVTKGASHKLALCIDKLKERANILNRVEQELLSGQMELSTAVEELTNIVLTPMKPLESPGPPEENIGLRFLKVIDIVTNTLQQDPYAVQDDETLGVLMWILDRSIHNEAFMNHASQLKDLKFKLSKMKISMVPKMHHVKPAGVGPNNGNINKPRWNGKTRKCDTKNGSNDRINNRKNSNDMLNFSLNCLPHPLPHHSQQAPPPLPQFDYNGYGGGPSHQPQYKSSSYPSFMGNPQQQPPPPPSSKSHHHPQQMQQMLQQHNHFPALPQQTPPQSHRRSLNNLILVAGGPQQPQQLIFKPGQGVLTNNGSNDNLVLERNQQSQQQQQQRKLSGGVSSAEQQPKKTMAAVVMENLAKFDQHFTLF
binding [4]: binds

B2: Smaug (ReLo, without membrane anchor) (protein, UniProt Q23972 1-999)
chain: MKYATGTDNAMTSGISGQTNNSNSASNEMQPTTSTPTAAHKEATSTATTTATYANGNPNSNANPSQSQPSNALFCEQVTTVTNLFEKWNDCERTVVMYALLKRLRYPSLKFLQYSIDSNLTQNLGTSQTNLSSVVIDINANNPVYLQNLLNAYKTFQPCDLLDAMSSSSSDKDSMPCYGSDFQITTSAQCDERKLYARKEDILHEVLNMLPLLKPGNEEAKLIYLTLIPVAVKDTMQQIVPTELVQQIFSYLLIHPAITSEDRRSLNIWLRHLEDHIQAAAAGLTNRSYFLQPSPQLVAGGSSTGSGSCSSSATSSSTASCSSVASSSLCPASGSRSSRTNDWQTIAPPSKQLQNKLAGDWRGNGGGSSSGSINPLCDNLNGITLNELASSQNSLGLSLEGSSSLVNGVVAGAGSMLGIAGGDDHDTSFSKNGTEILDFDPVTADMGEACSLASSSLCGRNGGNPVEDRSQPPPNLQQQLLQPPPYASILMGNVGDQFGEINRWSLDSKIAALKTRRSNSLTTQTISSCSSSSNSSVITVNDNCSNSTENLAQFANKPRSFSLSIEHQRGALMNSGSDTRLDEFKPNYIKFHTRNVGMSGIGLWLKSLRLHKYIELFKNMTYEEMLLITEDFLQSVGVTKGASHKLALCIDKLKERANILNRVEQELLSGQMELSTAVEELTNIVLTPMKPLESPGPPEENIGLRFLKVIDIVTNTLQQDPYAVQDDETLGVLMWILDRSIHNEAFMNHASQLKDLKFKLSKMKISMVPKMHHVKPAGVGPNNGNINKPRWNGKTRKCDTKNGSNDRINNRKNSNDMLNFSLNCLPHPLPHHSQQAPPPLPQFDYNGYGGGPSHQPQYKSSSYPSFMGNPQQQPPPPPSSKSHHHPQQMQQMLQQHNHFPALPQQTPPQSHRRSLNNLILVAGGPQQPQQLIFKPGQGVLTNNGSNDNLVLERNQQSQQQQQQRKLSGGVSSAEQQPKKTMAAVVMENLAKFDQHFTLF
binding [5]: no binding | binding [6]: no binding | binding [7]: no binding

B3: Smaug 37-281 (domain or fragment, UniProt Q23972 37-281)
chain: TAAHKEATSTATTTATYANGNPNSNANPSQSQPSNALFCEQVTTVTNLFEKWNDCERTVVMYALLKRLRYPSLKFLQYSIDSNLTQNLGTSQTNLSSVVIDINANNPVYLQNLLNAYKTFQPCDLLDAMSSSSSDKDSMPCYGSDFQITTSAQCDERKLYARKEDILHEVLNMLPLLKPGNEEAKLIYLTLIPVAVKDTMQQIVPTELVQQIFSYLLIHPAITSEDRRSLNIWLRHLEDHIQAAA
binding [8]: binds

More lines, now with the values ahead:

binding [1]: binds
Molecule: C-terminal regulatory domain of Fused (Drosophila) (domain or fragment)

binding [1]: no binding
Molecule: Smaug deletion, ReLo (from UniProt Q23972)

binding [3]: no binding
Molecule: Slmb (Drosophila)

These are yes or no findings as the source states them, for the method shown. For some of these results: A result given as binding can be weak or reduced; the word gives no strength. For some of these results: Tags and fused reporters may be left off the sequences shown. One block for each molecule: values may come before it.
